Legend:
potassium excretion = conditions: in vivo; cited from earlier work
[1] = tested on: potassium excretion in dogs; assay: Influence on potassium excretion (clearance experiments); type: in vivo, dog; conditions: anesthetized dogs, with higher amounts of sodium excreted
Description: Animals were anesthetized by 30.0 mg/kg pentobarbital intravenously. At the beginning of the experiment one saline solution was infused within 1 hour. In the urine which was collected by using a bladder catheter besides other parameters potassium and sodium concentrations were determined by flame photometry.

SMILES: NS(=O)(=O)c1cc(C(=O)O)c(NCc2ccco2)cc1Cl [Furosemide]
- effect on potassium excretion, Furosemide (known) (potassium excretion): little effect on potassium excretion
- increase of potassium excretion, Furosemide versus […] [1]: by far more increased with Furosemide than with 3282
